# In the supplement of paper PMC6411743:
# ± gives the standard deviation of the averaged measurements. The list shows a part of the results.
# What was measured:
# Assay in all cases: NP40-soluble protein abundance relative to vehicle (solubility fold change) (ratio); higher = more soluble protein in presence of GTP
# UniProt Q9H0G5 = molecular target: T1, UniProt Q9H0G5
# T1 sequence (whole entry): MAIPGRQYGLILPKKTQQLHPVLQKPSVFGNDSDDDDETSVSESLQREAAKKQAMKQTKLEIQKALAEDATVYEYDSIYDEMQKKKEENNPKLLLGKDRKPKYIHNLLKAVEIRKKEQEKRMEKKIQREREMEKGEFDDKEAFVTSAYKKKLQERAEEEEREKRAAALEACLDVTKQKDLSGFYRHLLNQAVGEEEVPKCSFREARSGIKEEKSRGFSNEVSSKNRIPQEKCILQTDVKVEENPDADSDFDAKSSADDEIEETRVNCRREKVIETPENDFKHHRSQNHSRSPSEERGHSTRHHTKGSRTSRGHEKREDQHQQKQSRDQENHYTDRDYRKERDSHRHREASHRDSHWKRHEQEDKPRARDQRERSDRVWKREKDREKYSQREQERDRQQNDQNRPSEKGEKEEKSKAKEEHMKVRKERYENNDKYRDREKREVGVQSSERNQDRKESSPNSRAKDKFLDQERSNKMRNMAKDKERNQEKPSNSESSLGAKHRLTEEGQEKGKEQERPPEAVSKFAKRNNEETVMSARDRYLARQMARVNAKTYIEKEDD
# Outline: (§1)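 In three independent experiments, Jurkat crude lysate made by Dounce homogenisation was treated for 10 min at room temperature and then 3 min at 37 °C with eight concentrations ranging from 0.1 to 10 mM. It was then solubilised with 0.8% NP40 plus benzonase for 60 min at 4 °C and ultracentrifuged. The supernatant was TMT-labelled for LC-MS/MS, and each value is the fold change against the detergent-processed vehicle for the same replicate, using vsn-normalised intensities.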
# UniProt Q9H0X4 = molecular target: T2, UniProt Q9H0X4
# T2 sequence (whole entry): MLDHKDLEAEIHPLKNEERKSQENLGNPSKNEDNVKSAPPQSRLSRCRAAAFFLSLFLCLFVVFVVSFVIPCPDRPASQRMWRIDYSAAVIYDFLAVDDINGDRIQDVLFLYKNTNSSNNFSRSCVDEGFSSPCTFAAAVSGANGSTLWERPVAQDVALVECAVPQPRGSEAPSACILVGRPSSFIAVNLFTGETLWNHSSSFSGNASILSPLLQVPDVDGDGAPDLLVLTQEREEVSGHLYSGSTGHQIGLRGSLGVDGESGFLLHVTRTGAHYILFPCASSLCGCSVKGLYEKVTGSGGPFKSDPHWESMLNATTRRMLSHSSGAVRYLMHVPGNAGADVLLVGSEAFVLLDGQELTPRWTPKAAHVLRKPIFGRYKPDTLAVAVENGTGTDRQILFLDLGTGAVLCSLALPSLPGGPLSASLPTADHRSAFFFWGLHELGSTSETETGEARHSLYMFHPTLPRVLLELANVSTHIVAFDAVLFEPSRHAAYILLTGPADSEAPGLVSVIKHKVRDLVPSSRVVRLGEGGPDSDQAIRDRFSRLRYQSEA
# Outline: as §1
# [1] = molecular target: T3, UniProt Q9H270 and related entries
# T3 sequence (whole entry): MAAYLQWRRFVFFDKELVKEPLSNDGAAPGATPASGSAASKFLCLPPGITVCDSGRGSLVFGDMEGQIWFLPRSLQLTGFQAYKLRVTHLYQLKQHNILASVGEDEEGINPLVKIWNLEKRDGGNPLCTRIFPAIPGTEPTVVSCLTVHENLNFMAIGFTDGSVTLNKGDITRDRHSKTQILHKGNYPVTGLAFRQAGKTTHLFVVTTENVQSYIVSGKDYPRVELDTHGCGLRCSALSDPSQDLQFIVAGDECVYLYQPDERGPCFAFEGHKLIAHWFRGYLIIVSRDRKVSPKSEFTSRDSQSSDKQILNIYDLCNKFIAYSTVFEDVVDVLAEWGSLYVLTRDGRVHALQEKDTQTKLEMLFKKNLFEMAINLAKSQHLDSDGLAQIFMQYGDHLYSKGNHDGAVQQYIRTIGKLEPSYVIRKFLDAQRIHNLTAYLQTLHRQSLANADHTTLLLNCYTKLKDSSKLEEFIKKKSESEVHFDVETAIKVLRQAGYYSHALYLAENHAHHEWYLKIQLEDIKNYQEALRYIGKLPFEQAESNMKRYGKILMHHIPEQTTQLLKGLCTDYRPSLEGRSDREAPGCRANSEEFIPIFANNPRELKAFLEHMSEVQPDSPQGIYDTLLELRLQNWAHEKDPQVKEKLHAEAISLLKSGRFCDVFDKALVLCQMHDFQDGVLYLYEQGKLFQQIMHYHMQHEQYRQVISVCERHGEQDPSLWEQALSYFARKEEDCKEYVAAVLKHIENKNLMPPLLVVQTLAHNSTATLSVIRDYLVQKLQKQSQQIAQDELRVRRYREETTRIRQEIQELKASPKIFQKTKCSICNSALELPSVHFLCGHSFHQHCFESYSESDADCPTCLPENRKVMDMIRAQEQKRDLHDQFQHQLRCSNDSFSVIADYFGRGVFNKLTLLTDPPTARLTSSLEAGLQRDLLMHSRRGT
# Outline: as §1
# [2] = molecular target: T4, UniProt Q9H4L7 and related entries
# T4 sequence (whole entry): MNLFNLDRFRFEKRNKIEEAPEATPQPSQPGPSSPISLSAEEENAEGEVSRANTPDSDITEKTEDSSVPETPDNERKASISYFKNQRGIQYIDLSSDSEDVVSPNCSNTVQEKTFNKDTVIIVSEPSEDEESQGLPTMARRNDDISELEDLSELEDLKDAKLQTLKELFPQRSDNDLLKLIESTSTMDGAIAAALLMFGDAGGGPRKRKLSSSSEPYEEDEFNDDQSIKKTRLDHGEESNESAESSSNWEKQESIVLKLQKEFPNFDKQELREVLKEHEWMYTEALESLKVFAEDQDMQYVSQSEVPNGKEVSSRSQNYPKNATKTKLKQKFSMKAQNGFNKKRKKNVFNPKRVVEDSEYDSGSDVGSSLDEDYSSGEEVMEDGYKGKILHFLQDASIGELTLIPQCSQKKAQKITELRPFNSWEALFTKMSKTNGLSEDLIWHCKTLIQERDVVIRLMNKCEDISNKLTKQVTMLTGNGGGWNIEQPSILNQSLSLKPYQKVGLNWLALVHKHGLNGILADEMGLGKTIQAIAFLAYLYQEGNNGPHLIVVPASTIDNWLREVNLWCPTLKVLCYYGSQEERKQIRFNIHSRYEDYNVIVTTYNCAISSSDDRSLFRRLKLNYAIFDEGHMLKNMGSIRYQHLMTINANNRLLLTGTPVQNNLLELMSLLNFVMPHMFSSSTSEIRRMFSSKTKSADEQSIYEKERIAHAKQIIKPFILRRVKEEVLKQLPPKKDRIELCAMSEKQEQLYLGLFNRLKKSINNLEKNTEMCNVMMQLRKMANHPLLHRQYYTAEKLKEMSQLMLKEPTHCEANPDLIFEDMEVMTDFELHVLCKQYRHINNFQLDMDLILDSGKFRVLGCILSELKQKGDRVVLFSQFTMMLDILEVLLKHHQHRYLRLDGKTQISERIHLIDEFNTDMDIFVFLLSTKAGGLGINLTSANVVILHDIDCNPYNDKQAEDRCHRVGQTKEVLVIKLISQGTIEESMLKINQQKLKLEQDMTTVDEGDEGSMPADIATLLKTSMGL
# Outline: as §1
# UniProt Q9H993 = molecular target: T5, UniProt Q9H993
# T5 sequence (whole entry): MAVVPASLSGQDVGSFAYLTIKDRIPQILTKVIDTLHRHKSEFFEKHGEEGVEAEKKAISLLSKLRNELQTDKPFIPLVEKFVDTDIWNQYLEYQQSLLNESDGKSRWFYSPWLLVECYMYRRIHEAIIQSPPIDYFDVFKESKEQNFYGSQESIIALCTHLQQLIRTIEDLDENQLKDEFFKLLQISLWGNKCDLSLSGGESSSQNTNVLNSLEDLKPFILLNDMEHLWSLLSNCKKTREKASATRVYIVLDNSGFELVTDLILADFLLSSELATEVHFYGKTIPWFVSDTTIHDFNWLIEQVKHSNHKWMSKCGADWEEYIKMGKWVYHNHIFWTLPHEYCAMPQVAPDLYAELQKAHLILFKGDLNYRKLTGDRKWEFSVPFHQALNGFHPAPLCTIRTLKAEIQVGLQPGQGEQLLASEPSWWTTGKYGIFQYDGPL
# Outline: as §1
smiles,measurement,setting,value
Nc1nc2c(ncn2[C@@H]2O[C@H](COP(=O)(O)OP(=O)(O)OP(=O)(O)O)[C@@H](O)[C@H]2O)c(=O)[nH]1 [guanosine triphosphate],NP40-soluble protein abundance,UniProt Q9H0G5; concentration: 4mM,1.04 ± 0.045
same,NP40-soluble protein abundance,UniProt Q9H0G5; concentration: 6mM,1.09 ± 0.074
same,NP40-soluble protein abundance,UniProt Q9H0G5; concentration: 8mM,1.18 ± 0.02
same,NP40-soluble protein abundance,UniProt Q9H0G5; concentration: 10mM,1.21 ± 0.04
same,NP40-soluble protein abundance,UniProt Q9H0X4; concentration: 0.1mM,0.928 ± 0.043
same,NP40-soluble protein abundance,UniProt Q9H0X4; concentration: 0.5mM,0.862 ± 0.016
same,NP40-soluble protein abundance,UniProt Q9H0X4; concentration: 1mM,0.937 ± 0.053
same,NP40-soluble protein abundance,UniProt Q9H0X4; concentration: 2mM,0.882 ± 0.097
same,NP40-soluble protein abundance,UniProt Q9H0X4; concentration: 4mM,0.908 ± 0.083
same,NP40-soluble protein abundance,UniProt Q9H0X4; concentration: 6mM,0.926 ± 0.096
same,NP40-soluble protein abundance,UniProt Q9H0X4; concentration: 8mM,0.922 ± 0.036
same,NP40-soluble protein abundance,UniProt Q9H0X4; concentration: 10mM,0.961 ± 0.12
same,NP40-soluble protein abundance,[1]; concentration: 0.1mM,1.14 ± 0.15
same,NP40-soluble protein abundance,[1]; concentration: 0.5mM,1.13 ± 0.16
same,NP40-soluble protein abundance,[1]; concentration: 1mM,1.04 ± 0.15
same,NP40-soluble protein abundance,[1]; concentration: 2mM,1.07 ± 0.13
same,NP40-soluble protein abundance,[1]; concentration: 4mM,1.08 ± 0.15
same,NP40-soluble protein abundance,[1]; concentration: 6mM,1.06 ± 0.15
same,NP40-soluble protein abundance,[1]; concentration: 8mM,1.05 ± 0.11
same,NP40-soluble protein abundance,[1]; concentration: 10mM,1.01 ± 0.14
same,NP40-soluble protein abundance,[2]; concentration: 0.1mM,0.994 ± 0.042
same,NP40-soluble protein abundance,[2]; concentration: 0.5mM,1.008 ± 0.0075
same,NP40-soluble protein abundance,[2]; concentration: 1mM,0.977 ± 0.044
same,NP40-soluble protein abundance,[2]; concentration: 2mM,0.959 ± 0.021
same,NP40-soluble protein abundance,[2]; concentration: 4mM,0.943 ± 0.06
same,NP40-soluble protein abundance,[2]; concentration: 6mM,0.966 ± 0.038
same,NP40-soluble protein abundance,[2]; concentration: 8mM,0.992 ± 0.034
same,NP40-soluble protein abundance,[2]; concentration: 10mM,0.9678 ± 0.0068
same,NP40-soluble protein abundance,UniProt Q9H993; concentration: 0.1mM,0.96 ± 0.042
same,NP40-soluble protein abundance,UniProt Q9H993; concentration: 0.5mM,0.97 ± 0.028
same,NP40-soluble protein abundance,UniProt Q9H993; concentration: 1mM,0.913 ± 0.066
same,NP40-soluble protein abundance,UniProt Q9H993; concentration: 2mM,0.869 ± 0.062
same,NP40-soluble protein abundance,UniProt Q9H993; concentration: 4mM,0.861 ± 0.1
same,NP40-soluble protein abundance,UniProt Q9H993; concentration: 6mM,0.862 ± 0.059

# Rewritten tab-delimited: part of the list above
smiles	measurement	setting	value
Nc1nc2c(ncn2[C@@H]2O[C@H](COP(=O)(O)OP(=O)(O)OP(=O)(O)O)[C@@H](O)[C@H]2O)c(=O)[nH]1 [guanosine triphosphate]	NP40-soluble protein abundance	[1]; concentration: 0.5mM	1.13 ± 0.16
same	NP40-soluble protein abundance	[1]; concentration: 1mM	1.04 ± 0.15
